Source: article PMC7228087
These are yes or no findings as the source states them, for the method shown. Binding seen in cells or lysates may run through a third protein. Some binding calls cover weakened binding; strength is not graded here. Sequences can lack the tags named with a protein.

T1: Cox6 with a tandem hemagglutinin plus protein C tag (S. cerevisiae) (UniProt P00427)
T1 sequence: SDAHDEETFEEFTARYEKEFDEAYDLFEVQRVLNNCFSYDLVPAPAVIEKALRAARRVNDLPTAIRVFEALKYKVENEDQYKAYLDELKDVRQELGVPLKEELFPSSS

B1: Cox2 (protein, UniProt P00410 16-251)
chain: DVPTPYACYFQDSATPNQEGILELHDNIMFYLLVILGLVSWMLYTIVMTYSKNPIAYKYIKHGQTIEVIWTIFPAVILLIIAFPSFILLYLCDEVISPAMTIKAIGYQWYWKYEYSDFINDSGETVEFESYVIPDELLEEGQLRLLDTDTSMVVPVDTHIRFVVTAADVIHDFAIPSLGIKVDATPGRLNQVSALIQREGVFYGACSELCGTGHANMPIKIEAVSLPKFLEWLNEQ
B2: cytochrome b (protein, UniProt P00163 1-385)
chain: MAFRKSNVYLSLVNSYIIDSPQPSSINYWWNMGSLLGLCLVIQIVTGIFMAMHYSSNIELAFSSVEHIMRDVHNGYILRYLHANGASFFFMVMFMHMAKGLYYGSYRSPRVTLWNVGVIIFILTIATAFLGYCCVYGQMSHWGATVITNLFSAIPFVGNDIVSWLWGGFSVSNPTIQRFFALHYLVPFIIAAMVIMHLMALHIHGSSNPLGITGNLDRIPMHSYFIFKDLVTVFLFMLILALFVFYSPNTLGHPDNYIPGNPLVTPASIVPEWYLLPFYAILRSIPDKLLGVITMFAAILVLLVLPFTDRSVVRGNTFKVLSKFFFFIFVFNFVLLGQIGACHVEVPYVLMGQIATFIYFAYFLIIVPVISTIENVLFYIGRVNK
B3: Atp9 with the V68C and S69C mutations (protein, UniProt P61829 1-76)
chain: MQLVLAAKYIGAGISTIGLLGAGIGIAIVFAALINGVSRNPSIKDTVFPMAILGFALSEATGLFCLMCCFLLLFGV

Molecular target: T1, Cox6 with a tandem hemagglutinin plus protein C tag (S. cerevisiae)
Assay: co-IP; Cox6-HAC held on protein C antibody beads; 2% digitonin extracts of mitochondria labelled with 35S-methionine/cysteine; eluted with EDTA; SDS-PAGE and BN-PAGE, autoradiography; strains with Cox6-HAC without or with mss51, mss51 pet494 or cox5a null mutations, cells grown with or without 2 mg/ml chloramphenicol, pulse and chase

Row | Binder | binding
1 | B1 | binds
2 | B2 | binds
3 | B3 | binds
